Assay results published in publication PMC4102417 (PLoS Neglected Tropical Diseases, 2014).

Test system: T. cruzi (Tulahuen strain)
Assay: microbe, parasite or virus in culture
Format: cell-based
Conditions: Trypanosoma cruzi, Fibroblast, read-out: T. cruzi EC50 (nM)
Protocol: Compounds were tested against T. cruzi (Tulahuen strain) stably expressing the beta-galactosidase gene as previously described. […] Fibroblasts were plated at a density of 2×10^3 per well in 96 well tissue culture plates. After 24 hours of incubation, 1×10^4 trypomastigotes/well were added to the fibroblasts and incubated for 4 hours before addition of the test compounds from the Spectrum Collection (10 µM final concentration). Cultures were incubated at 37°C for 5 days, then developed with chlorophenol red β-D-galactopyranoside as previously described. The percent inhibition is reported with standard deviation of the mean. […] Z-prime values were calculated for each 96-well plate based on positive (4 wells) and negative controls (4 wells).

O=C(CCCN1CCC2(CC1)C(=O)NCN2c1ccccc1)c1ccc(F)cc1 [SPIPERONE, 8-[4-(4-fluorophenyl)-4-oxobutyl]-1-phenyl-1,3,8-triazaspiro[4.5]decan-4-one]
EC50: 7900 nM
